Sequences of proteins named here, by UniProt entry; tags and fusion partners are left off.
UniProt O60884: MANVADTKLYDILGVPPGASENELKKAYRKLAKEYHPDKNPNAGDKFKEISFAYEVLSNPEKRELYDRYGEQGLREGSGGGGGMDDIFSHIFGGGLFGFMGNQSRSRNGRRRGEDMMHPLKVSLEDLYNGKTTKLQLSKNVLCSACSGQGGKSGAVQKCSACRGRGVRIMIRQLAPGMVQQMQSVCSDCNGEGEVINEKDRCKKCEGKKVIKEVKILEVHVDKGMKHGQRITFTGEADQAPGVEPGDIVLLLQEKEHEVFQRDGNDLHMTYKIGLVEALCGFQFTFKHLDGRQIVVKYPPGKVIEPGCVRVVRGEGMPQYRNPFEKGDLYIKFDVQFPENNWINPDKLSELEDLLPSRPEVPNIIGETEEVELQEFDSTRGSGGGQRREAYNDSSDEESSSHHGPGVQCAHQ
UniProt P62258: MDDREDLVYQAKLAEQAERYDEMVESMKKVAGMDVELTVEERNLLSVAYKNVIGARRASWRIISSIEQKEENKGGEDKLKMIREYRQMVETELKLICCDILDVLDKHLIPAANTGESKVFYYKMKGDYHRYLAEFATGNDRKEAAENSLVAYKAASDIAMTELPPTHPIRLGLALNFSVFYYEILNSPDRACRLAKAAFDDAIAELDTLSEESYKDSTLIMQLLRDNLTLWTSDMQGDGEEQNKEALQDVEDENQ
UniProt P67870: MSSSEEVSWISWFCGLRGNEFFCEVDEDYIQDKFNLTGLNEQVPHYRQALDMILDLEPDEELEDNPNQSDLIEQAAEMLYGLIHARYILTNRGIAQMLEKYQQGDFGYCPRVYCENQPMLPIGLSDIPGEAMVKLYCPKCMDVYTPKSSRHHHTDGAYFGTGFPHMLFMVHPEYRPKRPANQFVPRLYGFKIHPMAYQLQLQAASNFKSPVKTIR
UniProt Q9Y265: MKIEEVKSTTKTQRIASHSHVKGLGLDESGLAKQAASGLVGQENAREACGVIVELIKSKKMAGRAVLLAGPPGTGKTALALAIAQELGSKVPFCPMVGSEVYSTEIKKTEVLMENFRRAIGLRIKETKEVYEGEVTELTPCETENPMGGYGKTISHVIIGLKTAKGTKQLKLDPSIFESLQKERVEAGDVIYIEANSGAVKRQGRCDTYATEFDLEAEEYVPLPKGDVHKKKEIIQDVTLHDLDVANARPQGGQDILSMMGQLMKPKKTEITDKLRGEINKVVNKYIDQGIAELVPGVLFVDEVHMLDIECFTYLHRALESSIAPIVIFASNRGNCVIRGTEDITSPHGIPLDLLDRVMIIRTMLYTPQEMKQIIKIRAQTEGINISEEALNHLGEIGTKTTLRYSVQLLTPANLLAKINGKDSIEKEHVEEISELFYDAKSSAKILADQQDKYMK
UniProt Q96A65: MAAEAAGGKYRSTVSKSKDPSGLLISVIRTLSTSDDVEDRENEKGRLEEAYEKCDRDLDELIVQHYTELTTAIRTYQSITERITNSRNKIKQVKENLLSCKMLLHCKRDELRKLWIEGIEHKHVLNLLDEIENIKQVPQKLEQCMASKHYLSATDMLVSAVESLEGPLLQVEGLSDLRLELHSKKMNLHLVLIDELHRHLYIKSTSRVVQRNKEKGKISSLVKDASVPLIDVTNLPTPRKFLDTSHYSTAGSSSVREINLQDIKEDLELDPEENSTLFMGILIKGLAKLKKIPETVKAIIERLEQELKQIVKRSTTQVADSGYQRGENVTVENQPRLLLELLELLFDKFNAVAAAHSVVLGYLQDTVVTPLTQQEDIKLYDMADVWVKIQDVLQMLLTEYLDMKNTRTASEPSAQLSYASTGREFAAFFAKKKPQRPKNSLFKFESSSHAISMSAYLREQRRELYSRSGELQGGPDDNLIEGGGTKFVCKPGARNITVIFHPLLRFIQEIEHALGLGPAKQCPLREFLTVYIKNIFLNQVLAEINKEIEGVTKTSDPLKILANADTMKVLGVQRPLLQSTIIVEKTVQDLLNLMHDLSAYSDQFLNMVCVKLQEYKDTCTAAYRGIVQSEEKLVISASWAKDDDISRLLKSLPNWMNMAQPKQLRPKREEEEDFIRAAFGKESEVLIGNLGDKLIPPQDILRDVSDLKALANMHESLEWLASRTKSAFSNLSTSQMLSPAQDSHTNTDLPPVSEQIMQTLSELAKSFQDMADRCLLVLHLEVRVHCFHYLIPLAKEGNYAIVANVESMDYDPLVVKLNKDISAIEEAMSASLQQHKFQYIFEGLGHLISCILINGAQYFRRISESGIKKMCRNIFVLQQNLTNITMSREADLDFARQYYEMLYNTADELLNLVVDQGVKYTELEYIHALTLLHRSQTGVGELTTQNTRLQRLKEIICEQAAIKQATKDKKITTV
UniProt Q93008: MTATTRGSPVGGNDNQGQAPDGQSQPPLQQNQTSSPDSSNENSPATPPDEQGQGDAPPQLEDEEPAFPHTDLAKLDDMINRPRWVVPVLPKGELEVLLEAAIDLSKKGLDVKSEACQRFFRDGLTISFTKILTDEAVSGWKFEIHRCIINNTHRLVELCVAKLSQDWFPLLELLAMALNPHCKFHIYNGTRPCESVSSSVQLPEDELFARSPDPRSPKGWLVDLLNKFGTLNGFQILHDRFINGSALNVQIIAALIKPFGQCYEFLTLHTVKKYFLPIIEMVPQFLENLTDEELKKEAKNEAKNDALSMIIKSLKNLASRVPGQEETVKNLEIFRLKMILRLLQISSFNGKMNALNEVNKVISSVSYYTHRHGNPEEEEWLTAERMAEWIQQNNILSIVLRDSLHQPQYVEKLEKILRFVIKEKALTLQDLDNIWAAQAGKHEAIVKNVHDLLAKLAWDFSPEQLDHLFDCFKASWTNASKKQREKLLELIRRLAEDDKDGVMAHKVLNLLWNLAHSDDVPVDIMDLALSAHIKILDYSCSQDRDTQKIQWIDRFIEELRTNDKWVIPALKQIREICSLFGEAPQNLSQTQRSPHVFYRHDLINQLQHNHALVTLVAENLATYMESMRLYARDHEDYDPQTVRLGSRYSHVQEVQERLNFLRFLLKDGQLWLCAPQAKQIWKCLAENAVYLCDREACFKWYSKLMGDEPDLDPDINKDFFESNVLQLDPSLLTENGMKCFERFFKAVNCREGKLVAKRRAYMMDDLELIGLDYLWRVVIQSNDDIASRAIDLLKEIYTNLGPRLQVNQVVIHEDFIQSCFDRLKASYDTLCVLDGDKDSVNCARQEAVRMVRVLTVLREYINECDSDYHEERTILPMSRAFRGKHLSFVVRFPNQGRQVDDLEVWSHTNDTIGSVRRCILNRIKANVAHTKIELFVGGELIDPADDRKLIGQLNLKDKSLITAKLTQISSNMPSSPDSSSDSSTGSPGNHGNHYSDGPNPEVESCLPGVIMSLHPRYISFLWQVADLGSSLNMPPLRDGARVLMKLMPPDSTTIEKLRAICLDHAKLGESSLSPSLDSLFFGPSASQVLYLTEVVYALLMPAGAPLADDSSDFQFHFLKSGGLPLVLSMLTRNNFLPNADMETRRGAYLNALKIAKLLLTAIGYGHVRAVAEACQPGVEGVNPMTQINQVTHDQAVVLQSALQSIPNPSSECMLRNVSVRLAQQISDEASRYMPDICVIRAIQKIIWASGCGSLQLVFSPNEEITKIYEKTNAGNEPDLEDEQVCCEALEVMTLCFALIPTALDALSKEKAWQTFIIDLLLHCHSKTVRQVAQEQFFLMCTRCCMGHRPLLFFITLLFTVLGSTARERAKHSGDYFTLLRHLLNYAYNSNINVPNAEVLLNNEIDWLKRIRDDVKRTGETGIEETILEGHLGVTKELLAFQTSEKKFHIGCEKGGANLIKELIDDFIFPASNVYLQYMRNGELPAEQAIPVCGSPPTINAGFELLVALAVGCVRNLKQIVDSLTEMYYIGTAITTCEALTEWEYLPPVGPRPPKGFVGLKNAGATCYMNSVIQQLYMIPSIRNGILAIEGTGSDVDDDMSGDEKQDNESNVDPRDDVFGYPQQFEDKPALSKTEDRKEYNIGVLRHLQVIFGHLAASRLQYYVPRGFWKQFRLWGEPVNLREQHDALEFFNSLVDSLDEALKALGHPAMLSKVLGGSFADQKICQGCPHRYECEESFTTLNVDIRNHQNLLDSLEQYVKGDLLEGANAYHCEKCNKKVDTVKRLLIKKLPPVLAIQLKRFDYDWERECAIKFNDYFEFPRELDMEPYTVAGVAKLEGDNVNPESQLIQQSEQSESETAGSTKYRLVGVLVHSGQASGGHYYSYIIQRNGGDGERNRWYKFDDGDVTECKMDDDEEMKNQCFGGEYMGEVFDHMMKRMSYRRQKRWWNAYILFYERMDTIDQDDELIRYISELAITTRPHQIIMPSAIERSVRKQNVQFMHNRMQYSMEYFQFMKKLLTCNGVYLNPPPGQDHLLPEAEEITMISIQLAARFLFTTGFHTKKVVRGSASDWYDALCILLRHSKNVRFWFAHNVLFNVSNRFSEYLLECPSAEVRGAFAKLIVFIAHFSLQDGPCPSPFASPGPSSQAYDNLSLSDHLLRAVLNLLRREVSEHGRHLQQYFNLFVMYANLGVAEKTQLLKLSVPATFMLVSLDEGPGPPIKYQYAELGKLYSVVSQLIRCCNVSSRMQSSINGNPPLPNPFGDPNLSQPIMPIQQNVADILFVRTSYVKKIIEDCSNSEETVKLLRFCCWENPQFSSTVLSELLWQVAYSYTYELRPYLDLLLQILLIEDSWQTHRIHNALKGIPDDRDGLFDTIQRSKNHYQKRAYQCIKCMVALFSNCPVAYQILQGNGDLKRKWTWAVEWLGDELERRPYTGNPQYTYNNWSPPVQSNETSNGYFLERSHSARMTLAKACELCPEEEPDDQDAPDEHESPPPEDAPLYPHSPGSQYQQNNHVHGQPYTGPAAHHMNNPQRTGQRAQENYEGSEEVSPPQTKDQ

In PMC12418683:

Biological target: T1, AGBL5-eGFP (human) (UniProt Q8NDL9)
T1 sequence: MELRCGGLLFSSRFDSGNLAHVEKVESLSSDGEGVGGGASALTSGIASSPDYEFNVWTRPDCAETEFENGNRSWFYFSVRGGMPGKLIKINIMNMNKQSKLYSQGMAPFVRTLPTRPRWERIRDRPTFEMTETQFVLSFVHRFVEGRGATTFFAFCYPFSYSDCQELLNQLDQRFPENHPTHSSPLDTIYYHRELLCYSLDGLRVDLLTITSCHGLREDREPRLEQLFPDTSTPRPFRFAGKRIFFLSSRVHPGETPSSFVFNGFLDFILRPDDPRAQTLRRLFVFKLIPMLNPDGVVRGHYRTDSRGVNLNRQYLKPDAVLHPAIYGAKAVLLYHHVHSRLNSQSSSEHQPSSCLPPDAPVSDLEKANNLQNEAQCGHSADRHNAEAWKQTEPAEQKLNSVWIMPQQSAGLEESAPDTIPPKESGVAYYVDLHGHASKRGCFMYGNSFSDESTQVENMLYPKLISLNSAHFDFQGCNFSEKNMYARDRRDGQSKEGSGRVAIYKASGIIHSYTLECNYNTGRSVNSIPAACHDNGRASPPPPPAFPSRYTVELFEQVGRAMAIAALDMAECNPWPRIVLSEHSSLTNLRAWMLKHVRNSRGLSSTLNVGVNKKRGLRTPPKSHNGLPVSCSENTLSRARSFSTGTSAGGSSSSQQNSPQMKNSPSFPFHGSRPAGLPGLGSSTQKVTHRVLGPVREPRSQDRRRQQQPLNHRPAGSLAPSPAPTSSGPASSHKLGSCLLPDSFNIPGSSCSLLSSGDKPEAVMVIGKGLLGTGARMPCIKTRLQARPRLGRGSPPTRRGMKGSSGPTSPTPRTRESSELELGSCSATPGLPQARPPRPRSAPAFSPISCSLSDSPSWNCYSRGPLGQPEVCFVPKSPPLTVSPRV
Assay: affinity purification with mass spectrometry; GFP-Trap agarose beads (eGFP nanobody) on lysates of ARPE19 WT cells transiently expressing AGBL5-eGFP; on-bead digestion, LC-MS/MS (Orbitrap Fusion Lumos, DDA); control: cells transfected with pmaxGFP; 6 replicates of each; MaxLFQ, threshold log2 FC > …

Molecule: DNAJA2 (from UniProt O60884 1-412)
binding: binds

Molecule: SLIRP (human (endogenous in ARPE19))
binding: binds

Molecule: SQSTM1 (from UniProt Q13501 1-440)
binding: binds

Molecule: YWHAE (from UniProt P62258 1-255)
binding: binds

B1: YWHAQ (protein, UniProt P27348 1-245)
chain: MEKTELIQKAKLAEQAERYDDMATCMKAVTEQGAELSNEERNLLSVAYKNVVGGRRSAWRVISSIEQKTDTSDKKLQLIKDYREKVESELRSICTTVLELLDKYLIANATNPESKVFYLKMKGDYFRYLAEVACGDDRKQTIDNSQGAYQEAFDISKKEMQPTHPIRLGLALNFSVFYYEILNNPELACTLAKTAFDEAIAELDTLNEDSYKDSTLIMQLLRDNLTLWTSDSAGEECDAAEGAEN
binding: binds

B2: YWHAG (protein, UniProt P61981 1-247)
chain: MVDREQLVQKARLAEQAERYDDMAAAMKNVTELNEPLSNEERNLLSVAYKNVVGARRSSWRVISSIEQKTSADGNEKKIEMVRAYREKIEKELEAVCQDVLSLLDNYLIKNCSETQYESKVFYLKMKGDYYRYLAEVATGEKRATVVESSEKAYSEAHEISKEHMQPTHPIRLGLALNYSVFYYEIQNAPEQACHLAKTAFDDAIAELDTLNEDSYKDSTLIMQLLRDNLTLWTSDQQDDDGGEGNN
binding: binds

Second part, the molecule after the results:

binding: binds
Molecule: CSNK2B (from UniProt P67870 1-215)

binding: binds
Molecule: RUVBL1 (from UniProt Q9Y265 1-456)

binding: binds
Molecule: exocyst complex component 4 (from UniProt Q96A65 1-974)

binding: binds
Molecule: ubiquitin specific peptidase 9 X-linked (from UniProt Q93008 1-2554) (enzyme)

binding: binds
B3: Polycomb Group Ring Finger 3 (protein, UniProt Q3KNV8 1-242)
chain: MLTRKIKLWDINAHITCRLCSGYLIDATTVTECLHTFCRSCLVKYLEENNTCPTCRIVIHQSHPLQYIGHDRTMQDIVYKLVPGLQEAEMRKQREFYHKLGMEVPGDIKGETCSAKQHLDSHRNGETKADDSSNKEAAEEKPEEDNDYHRSDEQVSICLECNSSKLRGLKRKWIRCSAQATVLHLKKFIAKKLNLSSFNELDILCNEEILGKDHTLKFVVVTRWRFKKAPLLLHYRPKMDLL

Results are given in words; binding and its absence hold for the method and conditions named. In cells and extracts the contact can be indirect. Here binding means that the protein was enriched with, or labelled near, the bait; the list need not be complete. Where a sequence is shown, tags or fusion partners need not be part of it. One block for each molecule: values may come before it.
